The list shows a part of the results. The main result of the screen is listed elsewhere. These columns were measured beside it and carry no call. Compounds called inactive in the main read-out are mostly missing here. The note in brackets gives the kind of curve behind each potency; many fits are weak.
Assay: qHTS Assay for Modulators of Lamin A Splicing
Details: HeLa LMNA splicing GFP/RFP minigene ratio, 48 h
In short: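 Read-out is the ratio of GFP to DsRed2 object intensity, acquired by 488 nm laser-scanning cytometry on HeLa lamin A-EGFP minigene reporter cells. Compound incubation 48 hrs at 37 °C in Opti-MEM with 2% FBS; DMSO 0.5% final.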

[1] = measured here: RFP viability control channel
[2] = measured here: GFP splicing reporter channel

In the case of Cc1ccc(-c2cc(C(F)F)nc(NCc3cccs3)n2)cc1, the AC50 [1] is reported as 0.0141 µM [rising, full curve, poor fit].
With O=C(N/N=C/c1cc(Br)cc(Br)c1O)c1ccncc1 the AC50 [1] was 10 µM [rising, partial curve].
With OCCN(CCO)c1ccc(C(c2ccc(Cl)cc2)c2ccc(N(CCO)CCO)cc2Cl)c(Cl)c1 the AC50 [2] was 35.5 µM [falling, partial curve] and the AC50 [1] was 25.1 µM [falling, single point].
With CCOC(=O)CSc1nc(C(C)(C)C)nc2ccccc12 the AC50 [2] was 0.794 µM [falling, full curve, poor fit].
For c1ccc(-c2ccc(-c3cn4c(n3)CCC4)cc2)cc1, the AC50 [1] was 10 µM [rising, partial curve].
For CCOc1ccccc1/C=C(/NC(=O)c1ccccc1)C(=O)NCC(=O)O, the AC50 [2] was 6.31 µM [falling, single point].
For CCOC(=O)N1CCN(c2nc(-c3ccc(Cl)cc3)cs2)CC1, the AC50 [1] was 17.8 µM [rising, single point].
For Fc1ccccc1CNC(=S)Nc1cccc(C(F)(F)F)c1, the AC50 [1] was 35.5 µM [rising, single point].
For O=c1c2oc3ccccc3c2ncn1Cc1ccc(F)cc1, the AC50 [1] was 0.0891 µM [falling, full curve, poor fit].
For Cc1ccc(/C(O)=C2/C(=O)C(=O)N(Cc3cccnc3)C2c2ccccn2)cc1 (configuration not stated), the AC50 [2] was 35.5 µM [falling, single point] and the AC50 [1] was 20 µM [falling, single point].
For COc1cc(CNCCc2ccccc2)cc(Br)c1OCC(=O)Nc1ccccc1C, the AC50 [1] was 11.2 µM [falling, single point].
For Cc1ccc(CCNC(=O)c2ccc(CNS(=O)(=O)c3ccc(C)cc3)cc2)cc1, the AC50 [1] was 0.891 µM [falling, full curve, poor fit].
In the case of CCCN1CCCc2cc(CN)ccc21, the AC50 [1] is reported as 35.5 µM [rising, single point].
In the case of CCc1ccc(C2=NN(c3ccc(S(N)(=O)=O)cc3)C(c3ccc(F)cc3)C2)cc1 (configuration not stated), the AC50 [2] is reported as 14.1 µM [falling, partial curve] and the AC50 [1] is reported as 35.5 µM [falling, single point].
For O=C(c1ccc2c(c1)OCO2)N1CCN(c2ccc(C(F)(F)F)cn2)CC1, the AC50 [1] was 28.2 µM [rising, single point].
With CCOC(=O)N1CCN(c2nc3c(c(=O)[nH]c(=O)n3C)n2Cc2ccccc2Cl)CC1 the AC50 [2] was 0.0224 µM [rising, full curve, poor fit].
In the case of CC(=O)Nc1cccc(NC(=S)Nc2cccc(Cl)c2Cl)c1, the AC50 [1] is reported as 0.0112 µM [falling, full curve, poor fit].
With c1ccc(-c2nnc(SCC3CCCCO3)nc2-c2ccccc2)cc1 (configuration not stated) the AC50 [1] was 17.8 µM [rising, single point].
With CC(=O)[C@@H]1[C@@H](C(=O)c2ccccc2)[C@]2(C(=O)Nc3ccccc32)[C@H]2C=Cc3cc(F)ccc3N12 the AC50 [1] was 0.501 µM [rising, partial curve, poor fit].
With O=C(/C=C/Sc1ncn[nH]1)c1ccc(Cl)cc1 the AC50 [2] was 4.47 µM [falling, full curve] and the AC50 [1] was 8.91 µM [falling, partial curve].
In the case of Cc1cccc(-c2nnc(SCCC(=O)N3CCOCC3)o2)c1, the AC50 [2] is reported as 3.98 µM [falling, partial curve] and the AC50 [1] is reported as 3.98 µM [falling, partial curve, poor fit].
For Cc1cccc(NC(=O)NC2COc3ccccc3C2)c1C (configuration not stated), the AC50 [2] was 39.8 µM [rising, partial curve, poor fit].
In the case of CCSc1ccccc1C(=O)Nc1ccc2c(c1)OCO2, the AC50 [2] is reported as 14.1 µM [rising, partial curve, poor fit].
For CC(OC(=O)c1cc2sccc2n1C)C(=O)NCc1cccs1 (configuration not stated), the AC50 [1] was 35.5 µM [rising, single point].
For Cc1ccc(CSCCNC(=O)c2ccc(Cl)c(S(=O)(=O)N3CCOCC3)c2)cc1, the AC50 [1] was 14.1 µM [rising, single point].
With CCCCS(=N)(=O)CCC(N)C(=O)O (configuration not stated) the AC50 [2] was 35.5 µM [rising, single point] and the AC50 [1] was 17.8 µM [rising, single point].
With CC(=O)O[C@H]1CC2(C)[C@@H](C[C@@H](O)[C@H]3[C@@]4(C)CC[C@@H](O)[C@@H](C)[C@@H]4CC[C@@]32C)C1=C(CCC=C(C)C)C(=O)O (some centres not stated) the AC50 [2] was 0.0355 µM [rising, full curve, poor fit].
In the case of Cc1ccccc1NC(=O)CSc1nc(Nc2ccccc2)nc(N2CCOCC2)n1, the AC50 [1] is reported as 11.2 µM [rising, partial curve].
For C=CCn1c(COc2cccc(C)c2C)nnc1SCC(=O)N1CCN(c2ccccc2)CC1, the AC50 [1] was 3.55 µM [rising, partial curve].
With Cc1cc(C)cc(NC(=O)C(=O)NCC(c2cccnc2)N2CCc3ccccc32)c1 (configuration not stated) the AC50 [2] was 0.708 µM [rising, full curve, poor fit] and the AC50 [1] was 1.41 µM [rising, full curve].
In the case of CCC/C=C(\CCC)C(NS(=O)(=O)c1cccc2cccnc12)c1ccc(C(=O)OC)cc1 (configuration not stated), the AC50 [2] is reported as 15.8 µM [rising, single point] and the AC50 [1] is reported as 25.1 µM [rising, single point].
For C[C@@H]1CN(c2c(F)c(F)c3c(=O)c(C(=O)O)cn(C4CC4)c3c2F)C[C@H](C)N1, the AC50 [2] was 0.000794 µM [falling, full curve, poor fit].
With N#C/C(=C\C=C\c1ccccc1[N+](=O)[O-])C(=O)NC1CCCCC1 the AC50 [1] was 11.2 µM [rising, partial curve].
In the case of O=C1CCCN1CCCNc1ncnc2c1cnn2-c1ccc(Cl)cc1, the AC50 [1] is reported as 15.8 µM [rising, partial curve].
For CC(=O)c1c(C)[nH]c(C(=O)OCC(=O)Nc2cc(C)on2)c1C, the AC50 [1] was 35.5 µM [rising, single point].
With O=S(=O)(Nc1cccc(-c2ccc(N3CCOCC3)nn2)c1)c1cc(C(F)(F)F)ccc1Cl the AC50 [2] was 0.01 µM [rising, full curve, poor fit].
For COc1cc(OC)cc(-c2nc3ccccc3c(=O)n2OC(=O)c2ccccc2C)c1, the AC50 [1] was 14.1 µM [rising, partial curve].
With O=C(/C=C/c1ccccc1)Nc1cccc(C(=O)O)c1 the AC50 [2] was 1.12 µM [falling, full curve, poor fit] and the AC50 [1] was 1.78 µM [falling, full curve, poor fit].
In the case of CC(C)Cn1c(CN(C)Cc2ccccc2)nc2c1c(=O)n(C)c(=O)n2C, the AC50 [1] is reported as 20 µM [rising, single point].
For C/C(Cc1ccccc1)=N\NC(=O)CNC(=O)c1ccccc1Br, the AC50 [1] was 0.0562 µM [rising, full curve, poor fit].
With O=C(NCc1ccccc1Cl)c1cnc(N2CCCCC2)c2ccccc12 the AC50 [2] was 0.178 µM [falling, full curve, poor fit] and the AC50 [1] was 0.158 µM [falling, full curve, poor fit].
With Cc1cccc(C2c3[nH]c4ccccc4c3CCN2C(=O)c2cn(C)c3ccccc3c2=O)n1 (configuration not stated) the AC50 [2] was 3.55 µM [falling, single point] and the AC50 [1] was 5.01 µM [falling, partial curve, poor fit].
For CCc1ccc(C2C(C#N)=C(N)N(N(C)C)C3=C2C(=O)CCC3)s1 (configuration not stated), the AC50 [2] was 12.6 µM [rising, partial curve].
For O=C(Cc1cccs1)N1CCN(c2ccccn2)CC1, the AC50 [2] was 17.8 µM [rising, partial curve, poor fit] and the AC50 [1] was 5.62 µM [rising, partial curve, poor fit].
For Cc1cccc(-c2nc(Nc3ccc(N4CCOCC4)cc3)c3ccccc3n2)c1, the AC50 [1] was 15.8 µM [rising, single point].
In the case of Cc1ccc(CNC(=O)c2cc(C3CC3)nc3c2c(C)nn3-c2cccc(Cl)c2C)cc1, the AC50 [2] is reported as 1.58 µM [rising, partial curve] and the AC50 [1] is reported as 0.794 µM [rising, partial curve, poor fit].
With O=C(NCCN1CCOCC1)c1cc(-c2ccccc2)on1 the AC50 [1] was 35.5 µM [falling, single point].
With Cc1ccc(NC(=O)CSC2=C(C#N)C(c3ccc4c(c3)OCO4)CC(=O)N2)cc1C (configuration not stated) the AC50 [1] was 22.4 µM [rising, single point].
In the case of CCn1c(Sc2ccc([N+](=O)[O-])cn2)nnc1-c1ccco1, the AC50 [1] is reported as 20 µM [falling, single point].
In the case of Cc1cc([N+](=O)[O-])ccc1NC(=S)NC(=O)C(c1ccccc1)c1ccccc1, the AC50 [1] is reported as 35.5 µM [rising, single point].
In the case of CCOc1ccccc1-n1c(CN2CCN(C(=O)c3ccco3)CC2)nc2ccccc2c1=O, the AC50 [2] is reported as 12.6 µM [falling, partial curve] and the AC50 [1] is reported as 25.1 µM [falling, partial curve, poor fit].
With COc1ccc(C(=O)/C=C/c2ccc(F)cc2)c(OC(=O)c2ccc([N+](=O)[O-])cc2)c1 the AC50 [2] was 35.5 µM [falling, single point] and the AC50 [1] was 35.5 µM [falling, single point].
For COc1ccc(N2CCN(C(=O)CSc3nnnn3-c3ccc4c(c3)OCCO4)CC2)cc1, the AC50 [2] was 3.98 µM [rising, partial curve, poor fit].
In the case of Cc1ccc(CSCc2nnc(SCC(=O)N3CCN(c4ccccc4)CC3)n2C)cc1, the AC50 [2] is reported as 20 µM [rising, partial curve] and the AC50 [1] is reported as 12.6 µM [rising, single point].
In the case of O=C(Nc1ccc(Cl)cc1C(F)(F)F)C(Sc1cccc[n+]1[O-])c1ccccc1 (configuration not stated), the AC50 [2] is reported as 1.12 µM [falling, partial curve] and the AC50 [1] is reported as 1.12 µM [falling, partial curve].

— PubChem BioAssay AID1487 (National Center for Advancing Translational Sciences (NCATS), 2009)
